From the supplement of paper PMC6078165
The reference is the same well before dosing, and untreated signal decays as well.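 Labels refer to human fibroblasts, largely primary: uterine (C12385, HUF), lung (H6013), bone (Hs27A), adrenal (HADF), skin (WS1), plus mammary HMF and breast cancer-associated Hs343T. Cancer lines are basal-like or mesenchymal-like triple-negative breast cancer. The paper counts as hits responses shifting over 3x the replicate standard deviation. The tissue of the other fibroblasts is not given here.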

Test system: MDAMB436
Assay: relative JC-1 red fluorescence (viability) vs pre-drug, coculture with fibroblast (fraction); higher = more viable cancer cells
Description: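 JC-1 labelled TNBC cells cocultured 1:1 (1,500 cells each) with CellTrace Violet stained primary or stromal fibroblasts in 384-well plates in FluoroBrite medium, treated with one of 42 anticancer drugs at 0.1, 1, 10 or 100 uM. JC-1 red fluorescence (mitochondrial integrity in cancer cells only) was read by plate reader every 8 h for 72 h. Values are normalised to each well's pre-drug value. The stock of one drug was tenfold lower, so its dose labels may be too high.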

CCCCCOC(=O)Nc1nc(=O)n([C@@H]2O[C@H](C)[C@@H](O)[C@H]2O)cc1F [Capecitabine]
relative JC-1 red fluorescence
Conditions	8 h	16 h	24 h	32 h	40 h	48 h	56 h	64 h	72 h
0.1 µM, coculture fibroblast: C12385	0.739	0.6725	0.627	0.526	0.476	0.448	0.426	0.406	0.403
0.1 µM, coculture fibroblast: H6013	0.816	0.756	0.735	0.719	0.701	0.721	0.676	0.659	0.613
0.1 µM, coculture fibroblast: H6019	0.7133	0.645	0.608	0.521	0.487	0.467	0.435	0.411	0.385
0.1 µM, coculture fibroblast: H6076	0.717	0.653	0.639	0.595	0.584	0.558	0.572	0.569	0.552
0.1 µM, coculture fibroblast: H6231	0.779	0.684	0.698	0.603	0.585	0.553	0.534	0.515	0.49
0.1 µM, coculture fibroblast: HADF	0.814	0.772	0.766	0.741	0.743	0.781	0.716	0.712	0.676
0.1 µM, coculture fibroblast: HCFa	0.764	0.705	0.678	0.636	0.611	0.622	0.551	0.542	0.479
0.1 µM, coculture fibroblast: HCPF	0.734	0.663	0.671	0.607	0.603	0.561	0.549	0.532	0.514
0.1 µM, coculture fibroblast: HHSteC	0.79	0.767	0.734	0.702	0.688	0.695	0.632	0.617	0.558
0.1 µM, coculture fibroblast: HMF	0.733	0.674	0.669	0.617	0.61	0.578	0.58	0.558	0.558
0.1 µM, coculture fibroblast: HPFa	0.8801	0.79701	0.763	0.71	0.684	0.69	0.61	0.579	0.505
0.1 µM, coculture fibroblast: HUF	0.836	0.702	0.6638	0.5871	0.527	0.501	0.479	0.469	0.4563
0.1 µM, coculture fibroblast: Hs5	0.73	0.69	0.675	0.622	0.603	0.568	0.568	0.536	0.533
0.1 µM, coculture fibroblast: Hs27A	0.817	0.729	0.717	0.683	0.647	0.703	0.602	0.58	0.503
0.1 µM, coculture fibroblast: Hs343T	0.743	0.667	0.622	0.569	0.541	0.503	0.493	0.48	0.476
0.1 µM, coculture fibroblast: WS1	0.757	0.682	0.63	0.544	0.487	0.453	0.422	0.3923	0.374
1 µM, coculture fibroblast: C12385	0.8378	0.6909	0.677	0.603	0.561	0.543	0.528	0.514	0.511
1 µM, coculture fibroblast: H6013	0.8424	0.739	0.7203	0.719	0.7034	0.73561	0.694	0.685	0.641
1 µM, coculture fibroblast: H6019	0.71	0.63	0.601	0.52	0.476	0.464	0.431	0.403	0.37
1 µM, coculture fibroblast: H6076	0.737	0.6095	0.638	0.6133	0.606	0.599	0.616	0.618	0.617
1 µM, coculture fibroblast: H6231	0.753	0.673	0.67	0.601	0.58	0.55	0.529	0.51	0.486
1 µM, coculture fibroblast: HADF	0.891	0.752	0.7	0.684	0.738	0.728	0.763	0.682	0.699
1 µM, coculture fibroblast: HCFa	0.784	0.675	0.653	0.614	0.583	0.602	0.541	0.525	0.468
1 µM, coculture fibroblast: HCPF	0.748	0.663	0.662	0.614	0.599	0.576	0.56	0.557	0.543
1 µM, coculture fibroblast: HHSteC	0.898	0.838	0.844	0.82	0.82	0.8236	0.7633	0.7353	0.6845
1 µM, coculture fibroblast: HMF	0.7606	0.629	0.627	0.588	0.574	0.54	0.543	0.527	0.519
1 µM, coculture fibroblast: HPFa	0.906	0.869	0.87	0.852	0.858	0.817	0.808	0.786	0.712
1 µM, coculture fibroblast: HUF	0.858	0.738	0.718	0.647	0.59	0.571	0.539	0.523	0.51
1 µM, coculture fibroblast: Hs5	0.761	0.6517	0.6621	0.6193	0.6096	0.5761	0.592	0.569	0.56324
1 µM, coculture fibroblast: Hs27A	0.822	0.762	0.722	0.703	0.683	0.749	0.661	0.636	0.559
1 µM, coculture fibroblast: Hs343T	0.772	0.631	0.626	0.594	0.575	0.545	0.538	0.523	0.527
1 µM, coculture fibroblast: WS1	0.774	0.6704	0.6537	0.5827	0.5368	0.519	0.495	0.47	0.456
